One sequence from paper PMC4814574 can be followed below.

Protein sequences, listed by entry. Tags and fused reporters are not part of them.
UniProt P49715, whole entry: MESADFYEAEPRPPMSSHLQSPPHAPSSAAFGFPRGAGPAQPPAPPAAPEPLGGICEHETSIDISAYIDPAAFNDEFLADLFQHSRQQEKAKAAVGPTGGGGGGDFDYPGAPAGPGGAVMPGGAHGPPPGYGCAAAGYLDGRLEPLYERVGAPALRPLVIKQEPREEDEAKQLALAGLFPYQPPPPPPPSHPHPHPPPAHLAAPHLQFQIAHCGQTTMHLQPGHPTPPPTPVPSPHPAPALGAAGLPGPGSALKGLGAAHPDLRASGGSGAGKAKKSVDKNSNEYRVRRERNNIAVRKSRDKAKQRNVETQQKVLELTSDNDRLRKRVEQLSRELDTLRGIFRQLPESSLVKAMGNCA

The target of series [1] is C/EBPα WT-ER (human) (UniProt P49715). Briefly: EMSA supershift. To be noted: K562 cells treated with 5 uM β-estradiol 45 min; 10 mM HEPES-KOH pH 7.9, 50 mM KCl, 2.5 mM MgCl2, 1 mM DTT, 10% glycerol, 1 ug BSA, 0.5 ug poly(dI-dC), 25 ul, on ice 20 min; 6% gel, 0.5x TBE, 4 °C; protein in an extract; residues 1-358; protein details: C-terminal ER ligand-binding domain fusion.

Series [2] addresses C/EBPα WT (no ER tag) (human) (UniProt P49715). Briefly: EMSA supershift. The following applies: 0.1 and 0.5 ug nuclear extract; 10 mM HEPES-KOH pH 7.9, 50 mM KCl, 2.5 mM MgCl2, 1 mM DTT, 10% glycerol, 1 ug BSA, 0.5 ug poly(dI-dC), 25 ul, on ice 20 min; 6% gel, 0.5x TBE, 4 °C; protein in an extract; residues 1-358.

For at least one entry, the source does not settle the construct or the ends of the probe. Where cells or extracts were used, other partners may take part.

As to “CTAGGGCTTGCGCAATCTATATTCG / CGAATATAGATTGCGCAAGCCCTA [G-CSF receptor promoter C/EBP site oligonucleotide]”, the binding result in series [1] and in series [2] was “binds” throughout.
